These results are taken from PubChem BioAssay AID212 (DTP/NCI, 2004).

Molecules are shown by their SMILES. The list does not hold the whole screen: it is rich in T/C values a quarter to a half above the control, in often repeated tests (any T/C) and in doses without a T/C. Other doses and runs of a compound stand elsewhere. T/C is the treated group as % of the vehicle group. Schedule codes are those of the source, read here as Q, the interval in days (D) or hours (H), X, the number of doses. Some T/C values carry the count of animals alive at the toxicity check (mostly the fifth day); where none is given, no animal had died by that day. Some entries give survivors of the animals treated and no T/C: the source holds a T/C of zero for them, seemingly a mark for toxic or unscored doses. Counts of survivors are from the toxicity check (mostly the fifth day) where no day follows; animals may have died later. Some doses were run more than once; the results are listed from low to high.

This test has as its system BDF1 mice, colon carcinoma 38 sc, T/C %. Nature of the test: NCI In Vivo Anticancer Drug Screen. Data for tumor model Colon Carcinoma 38 (subcutaneous) in B6D2F1 (BDF1) mice. The following applies: T/C endpoint: median tumor weight (est.), higher T/C = larger tumour; for T/C: evaluated on day 20. A digest of the protocol:
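Transplantable tumor in mice; compound-treated vs vehicle-dosed controls. Measured survival or tumor size; value = T ÷ C.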

The mark [1] stands for this setting: dose: 100.0 mg/kg/injection, schedule: Q07DX002 (ip), vehicle: saline with Tween-80.
[2] abbreviates: dose: 800.0 mg/kg/injection, schedule: Q07DX002 (ip), vehicle: saline with Tween-80.

Turning to `COC(=O)C1(F)C(=O)NC(=O)NC1OC` (stereo not given), the survivor count (dose: 1600.0 mg/kg/injection, schedule: Q07DX002 (ip), vehicle: Klucel (hydroxypropylcellulose) (HPC)) is 5 of 10 on day 20.

Regarding `COC1(OC)C2C=CC1CC2`, for the setting “dose: 12.5 mg/kg/injection, schedule: Q07DX002 (ip), vehicle: saline with Tween-80”, the T/C was 133 % of control [9 of 10 alive on day 20].

As for `COc1cc2c[n+](C)c3c4cc5c(cc4ccc3c2cc1OC)OCO5`, the T/C (dose: 80.0 mg/kg/injection, schedule: Q07DX003 (ip), vehicle: saline with Tween-80) was 125 % of control.

Turning to `COC(=O)Nc1nc2ccc(C3(c4ccc(F)cc4)OCCO3)cc2[nH]1`, under “dose: 400.0 mg/kg/injection, schedule: Q07DX002 (ip), vehicle: saline”, the survivor count was 3 of 8 on day 20 and 6 of 10 on day 20.

Take `Cc1cn(C2CC(F)C(CO)O2)c(=O)[nH]c1=O` (stereo not given): the T/C (dose: 25.0 mg/kg/injection, schedule: Q01DX001 (ip), vehicle: Klucel (hydroxypropylcellulose) (HPC)) was 129 % of control.

For `O=NN(CCCl)C(=O)NCCCl`, the T/C is 132 % of control (dose: 1.0 mg/kg/injection, schedule: Q07DX003 (ip), vehicle: saline with Tween-80) and 141 % of control (dose: 4.0 mg/kg/injection, schedule: Q07DX002 (ip), vehicle: saline with Tween-80). In addition, the survivor count was 5 of 10 on day 20 (dose: 32.0 mg/kg/injection, schedule: Q07DX002 (ip), vehicle: saline with Tween-80); 4 of 10 on day 20 (dose: 40.0 mg/kg/injection, schedule: Q07DX002 (ip), vehicle: saline with Tween-80); 0 of 10 on day 20 (dose: 48.0 mg/kg/injection, schedule: Q07DX002 (ip), vehicle: saline + alcohol); 0 of 10 on day 20 (dose: 64.0 mg/kg/injection, schedule: Q07DX002 (ip), vehicle: saline with Tween-80); 0 of 10 on day 20 (dose: 80.0 mg/kg/injection, schedule: Q07DX002 (ip), vehicle: saline with Tween-80).

Consider `NC(=S)Nc1cccc2ccccc12`, for which the T/C (dose: 50.0 mg/kg/injection, schedule: Q07DX002 (ip), vehicle: saline with Tween-80) was 147 % of control [9 of 10 alive on day 20]. In addition, the survivor count by setting is: under setting [1], 2 of 10 on day 20; (dose: 200.0 mg/kg/injection, schedule: Q07DX002 (ip), vehicle: saline with Tween-80) 0 of 10 on day 20.

On to `CCCC[C@H]1C(=O)O[C@H](C)[C@H](NC(=O)c2cccc(NC=O)c2O)C(=O)O[C@@H](C)[C@@H]1OC(=O)CC(C)C`, for which the survivor count is, setting by setting: (dose: 2.0 mg/kg/injection, schedule: Q07DX002 (ip), vehicle: Klucel (hydroxypropylcellulose) (HPC)) 5 of 10 on day 20; (dose: 4.0 mg/kg/injection, schedule: Q07DX002 (ip), vehicle: Klucel (hydroxypropylcellulose) (HPC)) 2 of 10 on day 20.

With `ClC(Cl)=C(Cl)Cl`, under “dose: 112.0 mg/kg/injection, schedule: Q07DX002 (ip), vehicle: saline with Tween-80”, the T/C is 133 % of control. Besides, the survivor count is 2 of 10 on day 20 (dose: 400.0 mg/kg/injection, schedule: Q07DX002 (ip), vehicle: other); 0 of 10 on day 20 (dose: 800.0 mg/kg/injection, schedule: Q07DX002 (ip), vehicle: other); 0 of 10 on day 20 and 5 of 10 on day 20 (dose: 1600.0 mg/kg/injection, schedule: Q07DX002 (ip), vehicle: other).

In the case of `C[PH+](C)C.C[PH+](C)C.[Au]`, the survivor count (dose: 20.0 mg/kg/injection, schedule: Q07DX002 (ip), vehicle: saline) is 6 of 10 on day 20 and the survivor count (dose: 40.0 mg/kg/injection, schedule: Q07DX002 (ip), vehicle: saline) was 0 of 10 on day 20.

Consider `C/C=C1\C[C@@H]2C(OC)Nc3cc(O)c(OC)cc3C(=O)N2C1` (stereo not given in full), for which the T/C (dose: 0.06 mg/kg/injection, schedule: Q07DX002 (ip), vehicle: suspension in saline) was 129 % of control. The survivor count runs as follows: (dose: 2.0 mg/kg/injection, schedule: Q07DX002 (ip), vehicle: saline) 1 of 10 on day 20; (dose: 2.0 mg/kg/injection, schedule: Q07DX002 (ip), vehicle: suspension in saline) 0 of 10 on day 20.

In the case of `Nc1ncnc2c1ncn2C1OC(COP(=O)(O)O)C(O)C1O` (stereo not given), for the setting “dose: 800.0 mg/kg/injection, schedule: Q07DX002 (ip), vehicle: saline”, the T/C was 131 % of control.

In the case of `O=NN(CCCl)C(=O)NCCO`, the T/C (dose: 3.12 mg/kg/injection, schedule: Q07DX002 (ip), vehicle: water) is 128 % of control. The survivor count is reported as 4 of 10 on day 20 (dose: 25.0 mg/kg/injection, schedule: Q07DX002 (ip), vehicle: water); 0 of 10 on day 20 (dose: 50.0 mg/kg/injection, schedule: Q07DX002 (ip), vehicle: water); 0 of 10 on day 20 (dose: 100.0 mg/kg/injection, schedule: Q07DX002 (ip), vehicle: water).

Regarding `CC(O)CCC(=O)c1ccoc1` (stereo not given), the T/C (dose: 1.25 mg/kg/injection, schedule: Q07DX002 (ip), vehicle: saline) was 145 % of control [9 of 10 alive on day 20]. In addition, the survivor count is, setting by setting: (dose: 10.0 mg/kg/injection, schedule: Q03HX006 (ip), vehicle: saline) 1 of 10 on day 20; (dose: 20.0 mg/kg/injection, schedule: Q03HX006 (ip), vehicle: saline) 0 of 10 on day 20.

`CCC(=O)Sc1ccccc1C(=O)Nc1ccc(Cl)cc1`: the survivor count under setting [2] was 5 of 10 on day 20.

For `CCC1=C[C@H]2CN(CCc3c([nH]c4ccccc34)[C@@](C(=O)OC)(c3cc4c(cc3OC)N(C)[C@H]3[C@@](O)(C(=O)NC)[C@H](OC(C)=O)[C@]5(CC)C=CCN6CC[C@]43[C@@H]65)C2)C1`, the T/C (dose: 0.25 mg/kg/injection, schedule: Q07DX002 (ip), vehicle: saline) is 138 % of control.

In the case of `c1cc2n(n1)CCN2`, the T/C (dose: 12.5 mg/kg/injection, schedule: Q07DX002 (ip), vehicle: saline) is 131 % of control and the T/C (dose: 50.0 mg/kg/injection, schedule: Q04DX003 (ip), vehicle: saline) is 130 % of control. In addition, the survivor count (dose: 400.0 mg/kg/injection, schedule: Q01DX005 (ip), vehicle: saline) was 3 of 10.

Consider `O=c1cc(-c2ccccc2)[nH]c2c1CCCC2`, for which the T/C (dose: 450.0 mg/kg/injection, schedule: Q07DX002 (ip), vehicle: saline with Tween-80) is 128 % of control. Further, the survivor count runs as follows: (dose: 1800.0 mg/kg/injection, schedule: Q07DX002 (ip), vehicle: saline with Tween-80) 5 of 9 on day 20; (dose: 3600.0 mg/kg/injection, schedule: Q07DX002 (ip), vehicle: saline with Tween-80) 3 of 10 on day 20.

For the compound `C[C@H](CCC[C@H](C)OS(=O)(=O)c1ccccc1)OS(=O)(=O)c1ccccc1`, the T/C under setting [1] is 129 % of control [9 of 10 alive on day 20]. For the same compound, the survivor count by setting is: (dose: 400.0 mg/kg/injection, schedule: Q07DX002 (ip), vehicle: saline with Tween-80) 0 of 10 on day 20; under setting [2], 0 of 10 on day 20.
